Experimental data reported in US20210061908A1.
Positions count from the first letter of the chain named. These are yes or no findings as the source states them, for the method shown. Some binding calls cover weakened binding; strength is not graded here.

T1: IGSF11-hFc (UniProt Q5DX21)
T1 sequence (looked up): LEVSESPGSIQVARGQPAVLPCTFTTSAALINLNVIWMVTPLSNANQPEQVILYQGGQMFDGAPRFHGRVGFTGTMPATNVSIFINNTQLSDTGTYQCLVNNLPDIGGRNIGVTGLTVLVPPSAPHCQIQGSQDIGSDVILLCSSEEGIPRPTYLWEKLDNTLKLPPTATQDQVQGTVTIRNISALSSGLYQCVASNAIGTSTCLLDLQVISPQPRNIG

B1: A-016 (scFv format) (scFv, V domains shown)
VH: QVQLQESGAEVKKPGASVKVSCKASGYTFTGYYMHWVRQAPGQGLEWMGGIIPIFGTANYAQKFQGRVTITADESTSTAYMELSSLRSEDTAVYYCAGAGMELTRSGAYYYYGMDVWGQGTTVTVSS
VL: QSALTQPASVSGSPGQSITISCTGTSSDIGGYTFVSWYQQHPGKAPKVMIHDVNNRPSGISNRFSGSKSGNTASLTISGLQAEDEADYYCSSVTSTNTYVFGTGTKVTVL
B2: A-004 (scFv format) (scFv, V domains shown)
VH: EVQLVESGGGLVKPGGSLRLSCAASGFTFSSYSMNWVRQAPGKGLEWVSSISSSSSYIYYADSVKGRFTISRDNAKNSLYLQMNSLRAEDTAVYYCARGQLLWFGESALIDAFDIWGQGTMVTVSS
VL: EIVLTQSPSSLSASVGDRVTITCRASQSISSYLNWYQLKPGKAPKLLIYAASILQSGVPSRFSGSGSGTDFTLTISSLQPEDFAAYYCQQSYSTPRTFGQGTKLEIK
B3: A-008 (scFv format) (scFv, V domains shown)
VH: QLQLQESGPGLVKPSETLSLTCTVSGGSISSSGYYWGWIRQPPGKGLEWIGSIYYSGSTYYNPSLKSRVTISVDTSKNQFSLKLSSVTAADTAVYYCARHRVRFGEFDAFDIWGQGTMVTVSS
VL: QAVLTQPPSVSGAPGERVTLSCTGTSSNVGADFDVHWYQQFPGTAPRLLIFGSDNRPSGVPDRFSGSKSGTSASLAITGLQVEDEADYYCQAYDVRLSGWVFGGGTKLTVL
B4: A-006 (scFv format) (scFv, V domains shown)
VH: EVQLVESGGGLIQPGGSLRLSCAASGFTVSSNYMSWVRQAPGKGLEWVSVIYSGGSTYYADSVKGRFTISRDNSKNTLYLQMNSLRAEDTAVYYCARGNPYYYGDLQVNFDYWGQGTLVTVSS
VL: QAVVTQEPSLTVSPGGTVTLTCASSTGAVTSGYYPNWFQQKPGQAPRPLIYSTSNKHSWTPARFSGSLLGGKAALTLSGVQPDDEAEYYCLLYYGGDWVFGGGTKLTVL
B5: A-013 (scFv format) (scFv, V domains shown)
VH: B4 VH
VL: B4 VL with G32A, P48A, D83E, E87D, D97A
B6: A-005 (scFv format) (scFv, V domains shown)
VH: B4 VH
VL: B4 VL with G16E, K41R, P48A, H57D, D83E, D97A
B7: A-002 (scFv format) (scFv, V domains shown)
VH: B4 VH
VL: B4 VL with L20P, A23G, Y33N, Y34L, P48A, F64I, D83E, D97A
B8: A-012 (scFv format) (scFv, V domains shown)
VH: B4 VH with V5L, A24V
VL: B4 VL with P48A, D83E, D97A
B9: A-014 (scFv format) (scFv, V domains shown)
VH: QVQLVQSGAEVKKPGASVKVSCKASGYTFNDYYIHWVRQAPGQGLEWMGWFNPSTGGANYAQKFQGRVTMTRDTSISTAYLEVSSLRSDDTAVYYCARGNSPDLDYWGQGTLVTVSS
VL: DIQMTQSPDSLTVSLGERATINCKSSQSLLHSSNNKNYLAWYQQRPGQPPKLLIYWASTRQSGVPDRFSGSGSGTDFTLTINSLQADDMAVYYCQQYYTTTPNTFGQGTKLEIK
B10: A-034 (scFv format) (scFv, V domains shown)
VH: QMQLVQSGGGLVKPGGSLRLSCAASGFTFSSYTMNWVRQAPGKGLEWVSSISSIGTYIYYADSVKGRFTISRDNAKNSLYLQMNSLRAEDTAVYYCARVLLSGSYYGYFDSWGQGTLVTVSS
VL: QSVLTQPPSVSGAPGQRVTISCTGSSSNIGAGYDVHWYQQLPGTAPKLFIYGNSNRPSGVPDRFSGSKSGTSASLAITGLQAEDEADYYCQSYDSSLSGYVFGTGTKVTVL
B11: A-010 (scFv format) (scFv, V domains shown)
VH: QVQLVQSGAEVKKPGASVKVSCKASGYTFTSYGISWVRQAPGQGLEWMGWISAYNGNTNYAQKLQGRVTMTTDTSTSTAYMELRSLRSDDTAVYYCARVPAWSGQFDYWGQGTLVTVSS
VL: QSALTQPASVSGSPGQSITISCTGSSSDVGGYNYVSWYQQYPGKAPKLMIYDVRSRPSGVSNRFSGSKSGNTASLTISGLQAEDEADYYCTSYTSSNTLVIFGGGTKVTVL
B12: A-021 (scFv format) (scFv, V domains shown)
VH: B11 VH
VL: QSALTQPASVSGSPGQSITISCTGTSSDVGGYNYVSWYQQHPGKAPKLMIYEVTNRPSGVSDRFSGSKSANTASLTISELQAEDEAVYYCNSYTSGPTYVLFGGGTQLTVL
B13: A-024 (scFv format) (scFv, V domains shown)
VH: QMQLVQSGAEVKKPGSSVKVSCKASGGTFSSYAISWVRQAPGQGLEWMGWISAYNGNTNYAQKLQGRVTMTTDTSTSTAYMELRSLRSDDTAVYYCASLGSYGYTGAFDIWGQGTMATVSS
VL: B11 VL with S25T, Y41H, D52E, R54S, S55N, T91S, N97S, I101V, V108L
B14: A-001 (scFv format) (scFv, V domains shown)
VH: EVQLVESGGGLVKPGGSLRLSCAASGFTFSSYSMNWVRQAPGKGLEWVSSISSSSSYIYYADSVKGRFTISRDNAKNSLYLQMNSLRAEDTAVYYCVRSIIVQALGITSVFDIWGQGTMVTVSS
VL: AIRLTQSPSSLSASVGDRVTISCRASQIISNHLNWYQQKPGKAPKLLIYAASRLQTGVPSRFSGSGSETDYTLTISSLQPEDFATYYCQQSYSNPRTFGHGTKVEIK
B15: A-022 (scFv format) (scFv, V domains shown)
VH: EVQLLESGPGLVKPSQTLSLTCTVSGGSISSGGYYWSWIRQHPGKGLEWIGYIYYSGSTYYNPSLKSRVTISVDTSKNQFSLKLSSVTAADTAVYYCARASRSTDYYFDYWGQGTLVTVSS
VL: QPGLTQPPSMSYGLGQTATLTCTGNRNNIGDQGAAWLQQHQGHPPKLLSYRNNNGPSGISERLSASRSGNTASLTISGLQPEDEADYYCSAWDSSLRAWVFGGGTKLTVL
B16: A-035 (scFv format) (scFv, V domains shown)
VH: QVQLVQSGAEVKKPGASVKVSCKASGYTFTGYYMHWVRQAPGQGLEWMGWINPNSGNTGYAQKFQGRVTMTRNTSISTAYMELSSLRSEDTAVYYCARGRLERGYWYFDLWGRGTLVTVSS
VL: NFMLTQPHSVSESPGRTVTISCTRSSGSITSNYVQWYQQRPGSAPTILIYEDKERPSEVPDRFSGSIDISSNSASLTISGLKTEDEADYYCQSYGGTSQGVLFGGGTKVTVL
B17: A-013 (human IgG1 format) (antibody, V domains shown)
VH: B4 VH
VL: B4 VL with G32A, P48A, D83E, E87D, D97A
B18: A-012 (human IgG1 format) (antibody, V domains shown)
VH: B4 VH with V5L, A24V
VL: B4 VL with P48A, D83E, D97A
B19: A-022 (human IgG1 format) (antibody, V domains shown)
VH: B15 VH
VL: B15 VL
B20: A-035 (human IgG1 format) (antibody, V domains shown)
VH: B16 VH
VL: B16 VL

biological target: streptavidin (UniProt P22629); experiment: ELISA, scFv

Binder | binding
B1 | no binding (tested: <0.025 / <0.05 RFU (legend gives both))
B2 | no binding (tested: <0.025 / <0.05 RFU (legend gives both))
B3 | no binding (tested: <0.025 / <0.05 RFU (legend gives both))
B4 | no binding (tested: <0.025 / <0.05 RFU (legend gives both))
B5 | no binding (tested: <0.025 / <0.05 RFU (legend gives both))
B6 | no binding (tested: <0.025 / <0.05 RFU (legend gives both))
B7 | no binding (tested: <0.025 / <0.05 RFU (legend gives both))
B8 | no binding (tested: <0.025 / <0.05 RFU (legend gives both))
B9 | no binding (tested: <0.025 / <0.05 RFU (legend gives both))
B10 | no binding (tested: <0.025 / <0.05 RFU (legend gives both))
B11 | no binding (tested: <0.025 / <0.05 RFU (legend gives both))
B12 | no binding (tested: <0.025 / <0.05 RFU (legend gives both))
B13 | no binding (tested: <0.025 / <0.05 RFU (legend gives both))
B14 | no binding (tested: <0.025 / <0.05 RFU (legend gives both))
B15 | no binding (tested: <0.025 / <0.05 RFU (legend gives both))
B16 | no binding (tested: <0.025 / <0.05 RFU (legend gives both))

biological target: T1, IGSF11-hFc; experiment: ELISA, coated IGSF11-hFc, IgG1 format; EC50 grade (# >10 nM, ## 1-10 nM, ### <1 nM)

binding | Binder
binds | B17
binds | B18
binds | B19
binds | B20
